According to PubChem BioAssay AID1347426 (Functional Genomics Laboratory (NCATS/FGL), 2020):
Out of some 31,000 sequences screened, about 1,400 (4.5%) were called active.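 How the source made its calls: active means median seed-adjusted z-score above 1 or below -1; inactive means the rest.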 This is one part of the list.

Assay: Novel Modifiers of Survival Motor Neuron (SMN) Protein: Gene Identification via Genome-wide siRNA Screen;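 further: luminescence tracks full-length SMN protein made from the SMN2 reporter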
Conditions: HEK293T SMN2-luciferase reporter, siRNA knockdown, 72 h; actives lie on both sides
Method in brief: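 HEK293T cells stably carrying an SMN2 promoter/splicing cassette–luciferase reporter were reverse-transfected with 1 pmol siRNA per well (druggable-genome library, 3 siRNAs per gene) and grown 72 h at 37 °C. Luminescence, normalized to negative-control siRNA and log10-transformed, was scored as MAD.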

Sequence	median seed-adjusted z-score
CACCUUUCCUGGUACCAAATT against ENTPD5	inactive: -0.355
CAGACGAAUUUGUCUUUGATT against GIPC2	inactive: -0.0367
CAGGCAUUCUUACACCAAUTT against HSD17B6	inactive: 0.573
CCGUGACCGAGUCUCUUCATT against ENO1	inactive: 0.0766
CCGUAACCGUUUGUAUGGATT against MBNL2	inactive: -0.675
GACCUUCUACAAACAAGAATT against ADAT2	inactive: 0.604
AGACCCAGGUGAUCGCCUATT against HAAO	inactive: 0.214
GGUGGUGAAUGAAGGUUCATT against HINT1	inactive: 0.873
GAACUAUGUUGACUGGAUATT against C1S	inactive: -0.561
CGCUCAGGAUUUUAGUUCUTT against HOXC6	inactive: -0.137
CCCUAUCUAUCAUCUAGCATT against SMOX	inactive: -0.148
CCGUUACAGAGAUAGCUUUTT against NCOA5	inactive: 0.947
AGAGCGAGCUGUUACGGUATT against PCBP4	inactive: -0.269
CAAAGUUCCUGAGCAAGGATT against SPRR3	inactive: 0.682
GAGGCUUCAUUUUAGAAGATT against XPA	active: 2.03
GAUUGUCAUUCAAGAUAUATT against CMBL	inactive: 0
UCUUAUUGCUGACUUCAAATT against KLK15	inactive: 0
CUAUGAUUAUAGCCGGGUATT against PTPN22	inactive: -0.0843
GGGUGUACCUGAUUCUGGATT against AURKC	inactive: -0.0275
ACUUAGUCAUCAUCAAGUATT against GK	inactive: -0.474
GACUACGCCUUGAAGCUAATT against TAF6	active: -1.36
CACCUGGAGCGAUGGAAUCTT against FXYD1	inactive: 0.276
CCUCCGAGCUUAGCAAAGATT against RAD51C	inactive: -0.0724

Sequence	median seed-adjusted z-score
GGAUAGUAUGAAUGAUCAATT against SRP54	inactive: 0.203
GACAAUAUCCUACCCAUUUTT against SLC25A16	inactive: 0.0479
UAAUAAAGCGGAUUCUAGATT against THAP7	inactive: -0.0317
GCAAUGAGGAUGUGACUAATT against PSIP1	inactive: 0.549
CCUUUCAAGAGUCAAGUAATT against REXO4	inactive: -0.166
GAAUAUCACAAUACACUGUTT against FCGR1B	inactive: 0.2
CUGCCUACGUGAACUGGAUTT against TPSG1	inactive: 0
GCAUAGCUCUGGGCUACUATT against FIGN	inactive: -0.2
AGAGCUUUGUCAAAGAGGATT against CENTB5	inactive: 0.183
GCAGGGAAAGGCUCUGAAATT against LTA	inactive: 0.273
AGGGUUUGAUGUUCGGCUATT against MAT1A	inactive: 0.501
GAUCCAAGGCGAUAAGGAATT against TRIM59	inactive: 0.941
GCAAUCGAGUCACACUGAATT against BICC1	inactive: -0.352
CCAGCGUAGUUUCAAGUAUTT against WNK1	inactive: -0.121
GCCUGAGUCAUAAAGGGAATT against MLLT6	inactive: -0.281
AGAACGGGAUUGUUUAAUATT against MTHFSD	inactive: -0.298
GGAUUCACAAUCACGAUUATT against TTC13	inactive: 0.0363
AGCUUCUACCGUGUCCUUATT against UCK2	active: -1.51
GCAGGAACCCAGUAGGAUATT against ERAP1	inactive: -0.0666
GAUUGUCUGUUACGAAAAATT against SLC9A10	inactive: -0.0418
GACCUACUCUAGUGACAGATT against TRERF1	inactive: -0.0952
GCAACAACGAGAACCGUGATT against ING1	inactive: 0.121
GGACCAAAAAUGUCGAGUATT against SCN9A	inactive: -0.581

Individual results from the results shown.
Value for GACAAUAUCCUACCCAUUUTT against SLC25A16 under median seed-adjusted z-score: inactive: 0.0479
Value for GCAAUGAGGAUGUGACUAATT against PSIP1 under median seed-adjusted z-score: inactive: 0.549
Value for UAAUAAAGCGGAUUCUAGATT against THAP7 under median seed-adjusted z-score: inactive: -0.0317

Carrying on.

Sequence	median seed-adjusted z-score
GAACGGGUGUUUGACCACATT against EIF3C	inactive: 0.56
GGUUUUGCACAGCGAGGAATT against B3GALT4	inactive: 0.233
CACCCAAAGUGGGUGCUGATT against GZMM	inactive: -0.17
GGAAAGUCGUGAUCCUAGUTT against SLC30A9	inactive: -0.0779
GCAUCGGAGUAAGGCAUUUTT against SLC15A1	inactive: -0.693
GGGUAAACGAUUCCAGCAATT against N-PAC	inactive: 0.0542
GCAGAUUGAUAUACUAGGATT against ZNF192	inactive: 0
ACAUCACGCUGAGCACCCATT against PCBD1	inactive: 0
GAAGAGAUGUUCAACUGCATT against RAB35	inactive: 0.317
GCGACGGACUCAGAGAAAATT against KIFC2	inactive: 0.932
GUUUACCUCUAUGACCGAATT against SEC23IP	inactive: -0.0226
ACUGAGGCAUUUUCCCUAATT against KRT37	inactive: 0.0484
GCAUUUUGAUAGCUACAUATT against UGT3A1	inactive: 0.864
AGAUGUGCUUUGACGAGGATT against 12-Sep	inactive: 0.286
GCAGCAACCUUGUCAUCCATT against ZNF692	inactive: 0.556
CCAUCACCACCGCAUACUATT against RAB3A	inactive: -0.0787
GCUUUGACCGCUACCUGAATT against CXCR3	inactive: 0.693
UCGUGUUCCUAGUCAUCUATT against TCIRG1	inactive: 0.123
GUCCAAAGAGUGUCCGAUATT against RBM4	inactive: 0.0148
ACAUUUUGAGUUGCAAGUATT against RICH2	inactive: 0.4
GUAGCAUUCCUCCAACAAATT against PIK3C2G	inactive: 0.0251
CAGUUUAUCUUCGUAUACATT against ATXN2	inactive: 0
AGCGGAUCCUAGAACCAGATT against DPF2	inactive: 0.373
